{"source": "PubChem BioAssay AID330", "about": "(DTP/NCI, 2004)", "test_system": "P388 leukemia ip, CD2F1 mice, survival T/C", "experiment": "NCI In Vivo Anticancer Drug Screen. Data for tumor model P388 Leukemia (intraperitoneal) in CD2F1 (CDF1) mice", "conditions": "T/C endpoint: median survival time, higher T/C = longer survival", "note": "The list does not hold the whole screen: it is rich in T/C values a quarter to a half above the control, in often repeated tests (any T/C) and in doses without a T/C. Further doses and runs are listed elsewhere. T/C gives the treated animals as a percentage of the vehicle group. Some entries give survivors of the animals treated and no T/C: the source files T/C as zero there, which appears to mark a toxic dose or a test without result, not a measured value. Some doses without a T/C left all or most animals alive at the check, yet need not have been tolerated: survival well below the control is almost never listed, so the zero probably covers shortened survival too. Survivors were counted at the toxicity check, usually on the fifth day, unless a day is given; later deaths do not show. Schedule codes are those of the source, read here as Q, the interval in days (D) or hours (H), X, the number of doses. Some entries hold several experiments; their values stand side by side, smallest first. Additions like (4×) give the number of equal values in this list. Where survival is the endpoint, the PubChem record calls one and a half times the control and up active, and a quarter to a half above the control has no call in these data; cut-offs in other NCI protocols can differ. Some T/C values carry the count of animals alive at the toxicity check (mostly the fifth day); without a count, all were alive then."}
{"smiles": "CC[C@]1(O)C[C@H]2CN(CCc3c([nH]c4ccccc34)[C@@](C(=O)OC)(c3cc4c(cc3OC)N(C=O)[C@H]3[C@@](O)(C(=O)OC)[C@H](OC(C)=O)[C@]5(CC)C=CCN6CC[C@]43[C@@H]65)C2)C1", "values": [{"measurement": "survivor count", "setting": "dose: 2.0 mg/kg/injection, schedule: Q04DX003 (iv), vehicle: saline", "value": "6 of 6"}, {"measurement": "T/C", "setting": "dose: 2.25 mg/kg/injection, schedule: Q04DX003 (ip), vehicle: saline, evaluated on day 5", "value": "189 and 258 % of control"}, {"measurement": "T/C", "setting": "dose: 2.25 mg/kg/injection, schedule: Q04DX003 (ip), vehicle: saline, evaluated on day 9", "value": "128 [8 of 9 alive] and 147 % of control"}, {"measurement": "T/C", "setting": "dose: 2.5 mg/kg/injection, schedule: Q04DX003 (ip), vehicle: saline, evaluated on day 45", "value": "118 and 270 % of control"}, {"measurement": "T/C", "setting": "dose: 2.5 mg/kg/injection, schedule: Q04DX003 (ip), vehicle: saline, evaluated on day 60", "value": "227 % of control"}, {"measurement": "survivor count", "setting": "dose: 2.5 mg/kg/injection, schedule: Q04DX003 (ip), vehicle: saline", "value": "7 of 10"}, {"measurement": "T/C", "setting": "dose: 2.9 mg/kg/injection, schedule: Q04DX003 (ip), vehicle: saline", "value": "73, 99, 119, 122, 147, 150, 153 [8 of 9 alive], 228 % of control"}, {"measurement": "survivor count", "setting": "dose: 3.0 mg/kg/injection, schedule: Q04DX002 (ip), vehicle: saline", "value": "8 of 8"}, {"measurement": "T/C", "setting": "dose: 3.0 mg/kg/injection, schedule: Q04DX003 (ip), vehicle: saline, evaluated on day 20", "value": "99 % of control [5 of 6 alive]"}, {"measurement": "T/C", "setting": "dose: 3.0 mg/kg/injection, schedule: Q04DX003 (ip), vehicle: saline, evaluated on day 23", "value": "214 % of control"}, {"measurement": "T/C", "setting": "dose: 3.0 mg/kg/injection, schedule: Q04DX003 (ip), vehicle: saline, evaluated on day 29", "value": "295 % of control"}, {"measurement": "T/C", "setting": "dose: 3.0 mg/kg/injection, schedule: Q04DX003 (ip), vehicle: saline, evaluated on day 30", "value": "88, 89, 96, 97, 98, 99, 100 (2×), 102, 104 (2×), 106 [5 of 6 alive], 108, 111, 114, 117, 119, 121, 123 (2×), 124, 129 (2×), 143, 147, 155, 179 [5 of 6 alive], 189 [5 of 6 alive], 190 [5 of 6 alive], 192, 198, 200 (2×), 206, 211, 214, 216, 218, 223 [3 of 4 alive], 230, 235, 239, 240, 243, 243 [5 of 6 alive], 245 (2×), 250, 255, 258, 262 (2×), 273, 283 [9 of 10 alive], 290, 294 % of control"}, {"measurement": "T/C", "setting": "dose: 3.0 mg/kg/injection, schedule: Q04DX003 (ip), vehicle: saline, evaluated on day 40", "value": "252 % of control"}, {"measurement": "T/C", "setting": "dose: 3.0 mg/kg/injection, schedule: Q04DX003 (ip), vehicle: saline, evaluated on day 45", "value": "102 [9 of 10 alive], 112, 123 [9 of 10 alive], 192, 204, 205 (2×), 247, 259, 276, 280 % of control"}, {"measurement": "T/C", "setting": "dose: 3.0 mg/kg/injection, schedule: Q04DX003 (ip), vehicle: saline, evaluated on day 56", "value": "210 % of control"}, {"measurement": "T/C", "setting": "dose: 3.0 mg/kg/injection, schedule: Q04DX003 (ip), vehicle: saline, evaluated on day 60", "value": "206, 273, 284 % of control"}, {"measurement": "survivor count", "setting": "dose: 3.0 mg/kg/injection, schedule: Q04DX003 (ip), vehicle: saline", "value": "8 of 10, 5 of 6, 9 of 10, 10 of 10, 6 of 6"}, {"measurement": "survivor count", "setting": "dose: 3.2 mg/kg/injection, schedule: Q01DX009 (ip), vehicle: saline", "value": "1 of 6 and 3 of 6"}, {"measurement": "survivor count", "setting": "dose: 3.2 mg/kg/injection, schedule: Q04DX003 (ip), vehicle: water", "value": "3 of 6, 4 of 6, 6 of 6"}, {"measurement": "survivor count", "setting": "dose: 3.33 mg/kg/injection, schedule: Q04DX002 (ip), vehicle: saline", "value": "8 of 8"}, {"measurement": "T/C", "setting": "dose: 4.0 mg/kg/injection, schedule: Q01DX001 (ip), vehicle: saline, evaluated on day 5", "value": "74, 139, 144, 180, 182 % of control"}, {"measurement": "T/C", "setting": "dose: 4.0 mg/kg/injection, schedule: Q01DX001 (ip), vehicle: saline, evaluated on day 30", "value": "142, 157, 175 [4 of 5 alive], 208 % of control"}, {"measurement": "survivor count", "setting": "dose: 4.0 mg/kg/injection, schedule: Q01DX001 (ip), vehicle: saline", "value": "0 of 3, 0 of 6, 1 of 6, 2 of 6, 3 of 6 (2×)"}, {"measurement": "T/C", "setting": "dose: 4.0 mg/kg/injection, schedule: Q01DX001 (ip), vehicle: water, evaluated on day 3", "value": "51 % of control"}, {"measurement": "T/C", "setting": "dose: 4.0 mg/kg/injection, schedule: Q01DX001 (ip), vehicle: water, evaluated on day 5", "value": "90, 181, 185, 189, 190 % of control [8 of 9 alive]"}, {"measurement": "T/C", "setting": "dose: 4.0 mg/kg/injection, schedule: Q01DX001 (ip), vehicle: water, evaluated on day 6", "value": "148, 153, 158 % of control"}, {"measurement": "T/C", "setting": "dose: 4.0 mg/kg/injection, schedule: Q01DX001 (ip), vehicle: water, evaluated on day 10", "value": "97 % of control"}, {"measurement": "T/C", "setting": "dose: 4.0 mg/kg/injection, schedule: Q01DX001 (ip), vehicle: water, evaluated on day 30", "value": "153, 160, 169 [5 of 6 alive] (2×), 170 [4 of 6 alive], 170 [5 of 6 alive], 172 [5 of 6 alive] (2×), 173, 175, 177 [5 of 6 alive] (2×), 180 [4 of 6 alive], 185 [5 of 6 alive], 189 [2 of 3 alive], 197, 198 % of control"}, {"measurement": "T/C", "setting": "dose: 4.0 mg/kg/injection, schedule: Q01DX001 (ip), vehicle: water, evaluated on day 35", "value": "169 % of control [5 of 6 alive]"}, {"measurement": "survivor count", "setting": "dose: 4.0 mg/kg/injection, schedule: Q01DX001 (ip), vehicle: water", "value": "0 of 5, 0 of 6 (2×), 1 of 6, 1 of 3, 2 of 6 (2×), 3 of 6 (2×), 2 of 3, 4 of 6 (2×), 5 of 6, 3 of 3"}, {"measurement": "T/C", "setting": "dose: 4.0 mg/kg/injection, schedule: Q04DX003 (ip), vehicle: saline, evaluated on day 9", "value": "105 and 140 % of control"}, {"measurement": "T/C", "setting": "dose: 4.0 mg/kg/injection, schedule: Q04DX003 (ip), vehicle: saline, evaluated on day 35", "value": "94 % of control"}, {"measurement": "survivor count", "setting": "dose: 4.0 mg/kg/injection, schedule: Q04DX003 (ip), vehicle: saline", "value": "5 of 6"}, {"measurement": "survivor count", "setting": "dose: 4.0 mg/kg/injection, schedule: Q04DX003 (iv), vehicle: saline", "value": "4 of 6"}, {"measurement": "survivor count", "setting": "dose: 6.4 mg/kg/injection, schedule: Q01DX009 (ip), vehicle: saline", "value": "0 of 6"}, {"measurement": "survivor count", "setting": "dose: 6.4 mg/kg/injection, schedule: Q04DX003 (ip), vehicle: water", "value": "4 of 6"}, {"measurement": "survivor count", "setting": "dose: 8.0 mg/kg/injection, schedule: Q01DX001 (ip), vehicle: Klucel (hydroxypropylcellulose) (HPC)", "value": "5 of 6"}, {"measurement": "T/C", "setting": "dose: 8.0 mg/kg/injection, schedule: Q01DX001 (ip), vehicle: saline, evaluated on day 5", "value": "37, 55, 145, 151 % of control"}, {"measurement": "T/C", "setting": "dose: 8.0 mg/kg/injection, schedule: Q01DX001 (ip), vehicle: saline, evaluated on day 30", "value": "142 [5 of 6 alive] and 179 % of control [5 of 6 alive]"}, {"measurement": "survivor count", "setting": "dose: 8.0 mg/kg/injection, schedule: Q01DX001 (ip), vehicle: saline", "value": "0 of 3, 1 of 5, 2 of 6, 3 of 5"}, {"measurement": "T/C", "setting": "dose: 8.0 mg/kg/injection, schedule: Q01DX001 (ip), vehicle: water, evaluated on day 3", "value": "76 % of control"}, {"measurement": "T/C", "setting": "dose: 8.0 mg/kg/injection, schedule: Q01DX001 (ip), vehicle: water, evaluated on day 6", "value": "71, 76, 90 % of control"}, {"measurement": "T/C", "setting": "dose: 8.0 mg/kg/injection, schedule: Q01DX001 (ip), vehicle: water, evaluated on day 10", "value": "97 % of control"}, {"measurement": "T/C", "setting": "dose: 8.0 mg/kg/injection, schedule: Q01DX001 (ip), vehicle: water, evaluated on day 30", "value": "97, 156 [5 of 6 alive], 171 [4 of 6 alive], 219 % of control"}, {"measurement": "T/C", "setting": "dose: 8.0 mg/kg/injection, schedule: Q01DX001 (ip), vehicle: water, evaluated on day 35", "value": "195 % of control"}, {"measurement": "survivor count", "setting": "dose: 8.0 mg/kg/injection, schedule: Q01DX001 (ip), vehicle: water", "value": "0 of 3, 0 of 6 (2×), 1 of 6, 2 of 6 (2×), 3 of 6 (3×), 2 of 3, 5 of 6, 6 of 6"}, {"measurement": "survivor count", "setting": "dose: 8.0 mg/kg/injection, schedule: Q04DX003 (ip), vehicle: saline", "value": "1 of 6"}, {"measurement": "T/C", "setting": "dose: 8.0 mg/kg/injection, schedule: Q04DX003 (oral), vehicle: water", "value": "135 % of control"}, {"measurement": "survivor count", "setting": "dose: 12.8 mg/kg/injection, schedule: Q01DX009 (ip), vehicle: saline", "value": "0 of 6"}]}
